Binding data for two molecules are collected here from publication doi:10.1101/2024.11.05.621850.

By UniProt entry, the sequences of proteins in these tests, tags left out.
UniProt P20338: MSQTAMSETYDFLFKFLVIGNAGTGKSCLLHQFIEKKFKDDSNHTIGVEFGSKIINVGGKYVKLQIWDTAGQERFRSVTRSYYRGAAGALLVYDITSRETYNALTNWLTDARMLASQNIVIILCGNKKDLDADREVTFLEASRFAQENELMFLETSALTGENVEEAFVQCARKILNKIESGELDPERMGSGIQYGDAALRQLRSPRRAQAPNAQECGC

For one assay, the target named is T1, MYC:APEX2:RAB30 (human) (UniProt Q15771).
T1 sequence: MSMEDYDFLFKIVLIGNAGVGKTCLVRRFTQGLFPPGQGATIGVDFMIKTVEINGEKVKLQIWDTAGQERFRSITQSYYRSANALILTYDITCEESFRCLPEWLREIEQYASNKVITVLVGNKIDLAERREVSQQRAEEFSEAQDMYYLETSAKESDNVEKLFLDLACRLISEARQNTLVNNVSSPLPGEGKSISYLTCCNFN
The experiment in a line: proximity labelling.

Another assay addresses APEX2:RAB4A (human) (UniProt P20338). Briefly: proximity labelling.

No constants are given. Whether binding was seen depends on the method and setting. In cells and extracts the contact can be indirect. A yes stands for co-enrichment or nearness to the bait. Other partners may have been found. For some assays here: A no says only that the protein was not detected with the bait. For some assays here: Tags and fused reporters may be left off the sequences shown.

B1: RIC1 (protein, UniProt Q4ADV7 1-1423)
chain: MYFLSGWPKRLLCPLGSPAEAPFHVQSDPQRAFFAVLAAARLSIWYSRPSVLIVTYKEPAKSSTQFGSYKQAEWRPDSTMIAVSTANGYILFFHITSTRGDKYLYEPVYPKGSPQMKGTPHFKEEQCAPALNLEMRKILDLQAPIMSLQSVLEDLLVATSDGLLHLIHWEGMTNGRKAINLCTVPFSVDLQSSRVGSFLGFTDVHIRDMEYCATLDGFAVVFNDGKVGFITPVSSRFTAEQLHGVWPQDVVDGTCVAVNNKYRLMAFGCVSGSVQVYTIDNSTGAMLLSHKLELTAKQYPDIWNKTGAVKLMRWSPDNSVVIVTWEYGGLSLWSVFGAQLICTLGGDFAYRSDGTKKDPLKINSMSWGAEGYHLWVISGFGSQNTEIESDLRSVVKQPSILLFQFIKSVLTVNPCMSNQEQVLLQGEDRLYLNCGEASQTQNPRSSSTHSEHKPSREKSPFADGGLESQGLSTLLGHRHWHVVQISSTYLESNWPIRFSAIDKLGQNIAVVGKFGFAHYSLLTKKWKLFGNITQEQNMIVTGGLAWWNDFMVLACYNINDRQEELRVYLRTSNLDNAFAHVTKAQAETLLLSVFQDMVIVFRADCSICLYSIERKSDGPNTTAGIQVLQEVSMSRYIPHPFLVVSVTLTSVSTENGITLKMPQQARGAESIMLNLAGQLIMMQRDRSGPQIREKDSNPNNQRKLLPFCPPVVLAQSVENVWTTCRANKQKRHLLEALWLSCGGAGMKVWLPLFPRDHRKPHSFLSQRIMLPFHINIYPLAVLFEDALVLGAVNDTLLYDSLYTRNNAREQLEVLFPFCVVERTSQIYLHHILRQLLVRNLGEQALLLAQSCATLPYFPHVLELMLHEVLEEEATSREPIPDPLLPTVAKFITEFPLFLQTVVHCARKTEYALWNYLFAAVGNPKDLFEECLMAQDLDTAASYLIILQNMEVPAVSRQHATLLFNTALEQGKWDLCRHMIRFLKAIGSGESETPPSTPTAQEPSSSGGFEFFRNRSISLSQSAENVPASKFSLQKTLSMPSGPSGKRWSKDSDCAENMYIDMMLWRHARRLLEDVRLKDLGCFAAQLGFELISWLCKERTRAARVDNFVIALKRLHKDFLWPLPIIPASSISSPFKNGKYRTVGEQLLKSQSADPFLNLEMDAGISNIQRSQSWLSNIGPTHHEIDTASSHGPQMQDAFLSPLSNKGDECSIGSATDLTESSSMVDGDWTMVDENFSTLSLTQSELEHISMELASKGPHKSQVQLRYLLHIFMEAGCLDWCIVIGLILRESSIINQILVITQSSEVDGEMLQNIKTGLHAVDRWASTDCPGYKPFLNIIKPQLQKLSEITEEQVQPDAFQPITMGKTPEQTSPRAEESRGSSSHGSIPQGEVGSSNMVSRKEEDTAQAEEEEPFQDGTYDCSVS
With B1, the binding result with MYC:APEX2:RAB30 (human) was “binds”.

B2: VPS54 (endogenous) (protein, UniProt Q9P1Q0 1-977)
chain: MASSHSSSPVPQGSSSDVFFKIEVDPSKHIRPVPSLPDVCPKEPTGDSHSLYVAPSLVTDQHRWTVYHSKVNLPAALNDPRLAKRESDFFTKTWGLDFVDTEVIPSFYLPQISKEHFTVYQQEISQREKIHERCKNICPPKDTFERTLLHTHDKSRTDLEQVPKIFMKPDFALDDSLTFNSVLPWSHFNTAGGKGNRDAASSKLLQEKLSHYLDIVEVNIAHQISLRSEAFFHAMTSQHELQDYLRKTSQAVKMLRDKIAQIDKVMCEGSLHILRLALTRNNCVKVYNKLKLMATVHQTQPTVQVLLSTSEFVGALDLIATTQEVLQQELQGIHSFRHLGSQLCELEKLIDKMMIAEFSTYSHSDLNRPLEDDCQVLEEERLISLVFGLLKQRKLNFLEIYGEKMVITAKNIIKQCVINKVSQTEEIDTDVVVKLADQMRMLNFPQWFDLLKDIFSKFTIFLQRVKATLNIIHSVVLSVLDKNQRTRELEEISQQKNAAKDNSLDTEVAYLIHEGMFISDAFGEGELTPIAVDTTSQRNASPNSEPCSSDSVSEPECTTDSSSSKEHTSSSAIPGGVDIMVSEDMKLTDSELGKLANNIQELLYSASDICHDRAVKFLMSRAKDGFLEKLNSMEFITLSRLMETFILDTEQICGRKSTSLLGALQSQAIKFVNRFHEERKTKLSLLLDNERWKQADVPAEFQDLVDSLSDGKIALPEKKSGATEERKPAEVLIVEGQQYAVVGTVLLLIRIILEYCQCVDNIPSVTTDMLTRLSDLLKYFNSRSCQLVLGAGALQVVGLKTITTKNLALSSRCLQLIVHYIPVIRAHFEARLPPKQYSMLRHFDHITKDYHDHIAEISAKLVAIMDSLFDKLLSKYEVKAPVPSACFRNICKQMTKMHEAIFDLLPEEQTQMLFLRINASYKLHLKKQLSHLNVINDGGPQNGLVTADVAFYTGNLQALKGLKDLDLNMAEIWEQKR
Take B2: the binding entry with APEX2:RAB4A (human) was “no binding”.
